# No constants are given. Whether binding was seen depends on the method and setting. Binding seen in cells or lysates may run through a third protein. A yes stands for co-enrichment or nearness to the bait. Other partners may have been found.
# B1: CBP60g (endogenous, Arabidopsis protoplasts) (protein, UniProt F4K2R6 1-563)
# chain: MKIRNSPSFHGGSGYSVFRARNLTFKKVVKKVMRDQSNNQFMIQMENMIRRIVREEIQRSLQPFLSSSCVSMERSRSETPSSRSRLKLCFINSPPSSIFTGSKIEAEDGSPLVIELVDATTNTLVSTGPFSSSRVELVPLNADFTEESWTVEGFNRNILTQREGKRPLLTGDLTVMLKNGVGVITGDIAFSDNSSWTRSRKFRLGAKLTGDGAVEARSEAFGCRDQRGESYKKHHPPCPSDEVWRLEKIAKDGVSATRLAERKILTVKDFRRLYTVNRNELHNIIGAGVSKKTWNTIVSHAMDCVLDETECYIYNANTPGVTLLFNSVYELIRVSFNGNDIQNLDQPILDQLKAEAYQNLNRITAVNDRTFVGHPQRSLQCPQDPGFVVTCSGSQHIDFQGSLDPSSSSMALCHKASSSTVHPDVLMSFDNSSTARFHIDKKFLPTFGNSFKVSELDQVHGKSQTVVTKGCIENNEEDENAFSYHHHDDMTSSWSPGTHQAVETMFLTVSETEEAGMFDVHFANVNLGSPRARWCKVKAAFKVRAAFKEVRRHTTARNPREGL
# Target: ΔspVdSCP41 fused with a 3 × FLAG tag (Verticillium dahliae)
# Test: affinity purification with mass spectrometry; ΔspVdSCP41-3×FLAG expressed in Arabidopsis protoplasts; lysate (50 mM HEPES pH 7.5, 150 mM KCl, 1 mM EDTA, 1 mM DTT, 0.2% Triton X-100) on anti-FLAG agarose beads 12 hr at 4°C, eluted with 3 × FLAG peptide, tandem mass spectrometry
binder,measurement,value
B1,binding,binds
